About 3,700 (7%) of roughly 53,000 sequences were called active.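 The calls were made as follows: active = gene knockdowns whose robust z-score for IL-1 alpha signal is at least 2 or at most -2, so actives lie on both sides; inactive = the rest.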 This is one part of the list.
Experiment: Components of the Cytosolic LPS Sensing Pathway: Gene Identification via Genome-wide siRNA Screen;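 also: robust z of the log signal after scaling to non-targeting control siRNA wells of the plate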
Conditions: RAW264.7 macrophages, IL-1a HTRF, actives lie on both sides, screened at 100 nM (by protocol), cells primed 5 h with Pam3CSK4 first
Outline: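 Knockdown: 100 nM siRNA, 48h, RAW264.7. Stimulation: Pam3CSK4 5 h, then LipidA via TransIT-TKO 24 h. Output: supernatant IL-1a HTRF, negative-control-normalized, log robust z-score; viability by CellTiter-Glo.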

Sequence	z-score
CCGUUACCUUUUAAGCCUGTT against Socs6	inactive: -1.2
GGUCAUGGAUGUGCACGAUTT against Krt14	active: -2.21
GGACUUUUUAUACUGUGGATT against Septin2	inactive: -0.381
GGCUAAGAUUCAGGUCUUUTT against Crygs	inactive: -0.0763
GGAUUGAGCAGUGUCUAGUTT against Otos	inactive: -0.684
CCUUAUGUGCACUAUAGCCTT against 1700028K03Rik	inactive: -0.236
GCAUAUGCUUUUACAACACTT against Zfp280c	inactive: 0.252
CGCGCAGUUUGAAAACUAUTT against Septin8	inactive: 0.705
GGUCUCAAAUGAAACAAACTT against Upk3b	inactive: -1.05
GGUAGAACUGGAGUAUUCUTT against Arhgap4	inactive: 1.18
GCUCUCUCCUGCGCUAAAUTT against Camta2	inactive: 0.864
CCAUUUAACCUGAUUCUGUTT against Cntn1	inactive: -0.796
GGACAACUAUGAAUUAGUGTT against Pfkp	inactive: -0.801
GGUAUGAUUGAAUUUCGUGTT against Purg	inactive: -0.871
GGCCCUUCAGCAGAAAAAUTT against Chmp1a	inactive: 0.256
GUAUAUUACCGUCGGAAUATT against Clec4b1	inactive: 0.581
GGGAACCCUAACAACUUCGTT against Wfdc6b	inactive: -0.274
GCUUAGAGCAUUUCAGUCUTT against Ncapd2	inactive: -0.399
GGUCAUUAGGAACUACACUTT against Vav3	inactive: -0.781
GGGUAUAUAAGCAGCACCATT against Rdh9	inactive: 0.736
GGAUAAGAAGUCCAAGAACTT against Pknox2	inactive: -0.819
GGAUUACGAGAAACUUGGUTT against Nmral1	inactive: -1.55

Sequence	z-score
CCCUGAACAAUCUGCUACATT against Enkd1	inactive: -1.17
GGCUUUGAAAGUUCUUCAATT against Nkrf	inactive: 0.548
CGCUGAAAUGGUGAAUAAATT against Recql	inactive: -0.0529
GGAUAAGGACCUCUUCUCUTT against Ubl7	inactive: -1.41
GGAGUAUGCUGUCAAAAUCTT against Mknk1	inactive: 0.259
GGCAAGGACCCUGACCUAUTT against Ccr4	inactive: -1.08
CCGCACAAGAGGUAGAUACTT against Ddx5	active: -2.56
GGGUUCUGGACAAGAUGAATT against Gpi1	inactive: -0.148
GGCCUUUUCUCAAGGAGAATT against Cadps2	inactive: -0.15
CGGAAUUGGUGAUCUUUGUTT against Olfr1104	inactive: -0.517
GCAAACCAACAGAUGCUGCTT against Zfp184	inactive: -0.117
GACCAUAGAGAUUAUCGUGTT against Retnla	inactive: -0.172
GGAAGGAAGUUAAUUCAUGTT against Zfp866	inactive: 1.5
GCCUCUAGUACAGACAACCTT against Rnf121	inactive: 0.464
GCACAGAGUUUUACCUUCUTT against Olfr811	inactive: -0.818
GGACAAUCCGUUCUUUCUGTT against Tgfb3	inactive: 0.132
GGAAGUUUGCUAGAGUUAATT against Taf13	inactive: -1.87
GGAAGUCAUCAAAGGCUUUTT against Fkbp1b	inactive: -0.117
GGAGGUGAAGCUUCGAAUGTT against Slc25a10	inactive: 0.052
CCCUCCUAUUAGCGCAUUUTT against Osbpl2	inactive: -0.239
GGAGUGUCUCAGUUCAGUGTT against Ppp3r1	inactive: -1.49
GGUCAGAGGCCAACAUGGUTT against Oas1e	inactive: 1.24

Sequence	z-score
GCAAACUGUCCUAUCUUGGTT against Cacna1d	inactive: 0.84
GGUGGAGCACAUGUUCAGCTT against Rfwd3	inactive: 0.996
GGAAAACAAGCCUAAGUCATT against Zfyve19	inactive: 0.261
GGAUCAUGUCAUCACAAAATT against Fzd3	inactive: -0.319
GCUCGAGAGAUCAAUUUAATT against Olfr568	inactive: 0.241
CCUAUUAAUAUGGAAAGUGTT against Arcn1	inactive: 0.675
CCGAGCAGGAUUGCAUAUATT against Cspg5	inactive: 1.41
GGGAGACUUUCCAUUUGGUTT against Ap3s1	inactive: -1.43
GGUCAUGAUGGUAUUGUGCTT against Traf7	inactive: -0.519
GCGGUAAGAACGUGGAACUTT against Tent5b	inactive: 0.536
GCAGAGGGUGCUUGUAACCTT against Hp	inactive: -0.314
CCUACAAAACCCUCAUGCUTT against Kcnk18	inactive: -0.67
GGUGUGGAACGACAAACAGTT against Pla2g4f	active: -2.8
CGUACACCGUAUUCAUGACTT against Rapgef5	active: 3.6
GGAGGAGAUCCUUCAUUACTT against Psap	inactive: -0.118
CGCGCCCGUCAAAUUUGAUTT against Fam185a	inactive: 0.186
GGAGCUGGUGGAUCUGAAGTT against Ubfd1	inactive: 1.26
GGACAGCCAAAUAGAAUAATT against Atrn	inactive: 0.522
GCGAAUCAGCACUUAUGGATT against Cd2ap	active: 2.65
GGUUUCAGAAAAUCAACCATT against Ttll13	inactive: 0.11
GGACCAUCAGUACCAGUUUTT against Trim28	inactive: 0.295
CGGUCUUCCCGUGGUUCAATT against Gm5114	inactive: -0.992

Sequence	z-score
GGAAAAGAAAACAGGAGAUTT against Edn3	inactive: 0.355
GCACAACUUAUGACUGAAATT against Emc4	inactive: 1.66
GGCAAUACUGGAAGGGUGUTT against Eps15	inactive: -1.03
GCGGCGGAUAGUGUCACAUTT against Gmip	inactive: -0.661
CGGAUUACAAACCAUAAAATT against Mex3b	inactive: -0.497
GGCCAAGUGCUCACAGUUCTT against Arpc1b	inactive: 1.1
GGUCAGAUUAUGCUUUAGATT against Mrgpre	inactive: -0.783
GCUAUUCGUACAUAUGAUUTT against Efcc1	inactive: -0.479
GGUCAAUCACUUAUAAUGUTT against Olfr771	inactive: -0.573
GGCUGUCUGUUAAGAUUAATT against Olfr181	inactive: -1.56
GCUCCGAUAUCAUUUGUUUTT against Crh	inactive: 0.262
GGAAAGUGCAUCAUAGACATT against Thrb	inactive: 0.153
GCUCCUGGCAUUAUUUUUUTT against Amz1	inactive: 0.29
GGUUUUGAAGCUGAAAAUATT against Zfp60	inactive: 1.13
CCCUAACAGCUGACGAUAATT against Tm7sf3	inactive: -0.791
GGGCACACUUCUCUUCAUUTT against Olfr152	inactive: -0.187
GGAAAGAUCUUAUAAUGUGTT against Zfp85	inactive: 0.101
GGAUCAUAGUGUCUUUCAGTT against Dnaja4	inactive: 0.894
GGAUCAAGUUGCCUCCGUUTT against Olfr1097	inactive: 1.2
CCAAGGACAACCCUAUCAGTT against Cdsn	inactive: -0.279
UUGUAUUGAGUGGUUAAGCTT against 3110053B16Rik	inactive: 1.41
GGUGAACAUCUUCCAUUAUTT against Krtap3-2	inactive: 0.344

22 entries from above, reformatted:
Sequence | z-score
GGCUAAGAUUCAGGUCUUUTT against Crygs | inactive: -0.0763
GGAUUGAGCAGUGUCUAGUTT against Otos | inactive: -0.684
GCAUAUGCUUUUACAACACTT against Zfp280c | inactive: 0.252
GCUCUCUCCUGCGCUAAAUTT against Camta2 | inactive: 0.864
CCAUUUAACCUGAUUCUGUTT against Cntn1 | inactive: -0.796
GGCCCUUCAGCAGAAAAAUTT against Chmp1a | inactive: 0.256
GUAUAUUACCGUCGGAAUATT against Clec4b1 | inactive: 0.581
CGCUGAAAUGGUGAAUAAATT against Recql | inactive: -0.0529
GGCAAGGACCCUGACCUAUTT against Ccr4 | inactive: -1.08
GGAGGUGAAGCUUCGAAUGTT against Slc25a10 | inactive: 0.052
CCCUCCUAUUAGCGCAUUUTT against Osbpl2 | inactive: -0.239
GGUGGAGCACAUGUUCAGCTT against Rfwd3 | inactive: 0.996
GCGGUAAGAACGUGGAACUTT against Tent5b | inactive: 0.536
GCAGAGGGUGCUUGUAACCTT against Hp | inactive: -0.314
CCUACAAAACCCUCAUGCUTT against Kcnk18 | inactive: -0.67
GGAGGAGAUCCUUCAUUACTT against Psap | inactive: -0.118
GGUCAGAUUAUGCUUUAGATT against Mrgpre | inactive: -0.783
GCUAUUCGUACAUAUGAUUTT against Efcc1 | inactive: -0.479
GGUCAAUCACUUAUAAUGUTT against Olfr771 | inactive: -0.573
GGAAAGUGCAUCAUAGACATT against Thrb | inactive: 0.153
GGUUUUGAAGCUGAAAAUATT against Zfp60 | inactive: 1.13
GGAAAGAUCUUAUAAUGUGTT against Zfp85 | inactive: 0.101

Later entries:

Sequence	z-score
GGGAUUUGUGAUUGAACUGTT against Fryl	inactive: 0.395
GCCUUGGCGACAAAGCUAATT against Shtn1	inactive: -0.222
GGCCUACCACCUUCAGAAGTT against Rpl37	active: 2.01
CGAGGGUGAAAGCUCUUUUTT against Zfp248	inactive: -0.702
GGCCAUUCUUUGUCACCCATT against Os9	active: -2.87
CCGGGUCAUUAUCUAUCAATT against Puf60	inactive: -0.383
GCCGUCAGAUGACAACUAGTT against Lta	inactive: 0.481
GGUUAUUUCGGGAGAUAAGTT against Nudcd1	inactive: -0.351
GUCAAAUGGAGCAGAGCCATT against Cypt4	inactive: -1.37
GGGACCAUGAAUAAUGGCCTT against Snai1	inactive: -0.0451
GCUUCAAGUUCGUACGCCUTT against Eif2b1	inactive: 1.52
GGUUAGAAUAUGCAGAACATT against Arntl	inactive: -0.525
GGUAUACCACUAUUCUCACTT against Olfr649	inactive: 0.705
GCUUUUUAUAUGUGCGCAGTT against Zfp691	inactive: 0.693
GCUACCUUUCUGAACAUACTT against Lcp2	inactive: -0.083
GGAUAUCAGGGUUGUUAAGTT against Txnl4b	inactive: 0.952
CCGCGUUCACAUUCUCUAATT against Hfe	inactive: -0.139
CCCAGAGAACUAGAAACGATT against 9430097D07Rik	inactive: -0.273
GGUCUUUCCUAAUAAGCAGTT against F830208F22Rik	inactive: 1.22
